## Cleaved PARP in drug-treated melanoma cells

Values as published with doi:10.1371/journal.pone.0140310, rounded.

Drug key:
PF-04217903: OCCn1cc(-c2cnc3nnn(Cc4ccc5ncccc5c4)c3n2)cn1 at 5 µM
dovitinib: CN1CCN(c2ccc3nc(-c4c(N)c5c(F)cccc5[nH]c4=O)[nH]c3c2)CC1 at 0.5 µM
bortezomib: CC(C)C[C@H](NC(=O)[C@H](Cc1ccccc1)NC(=O)c1cnccn1)B(O)O at 0.005 µM
dorsomorphin: c1cc(-c2cnn3cc(-c4ccc(OCCN5CCCCC5)cc4)cnc23)ccn1 at 2 µM
vatalanib: Clc1ccc(Nc2nnc(Cc3ccncc3)c3ccccc23)cc1 at 10 µM
CP-690550: C[C@@H]1CCN(C(=O)CC#N)C[C@@H]1N(C)c1ncnc2[nH]ccc12 at 5 µM
tanespimycin: C=CCNC1=C2C[C@@H](C)C[C@H](OC)[C@H](O)[C@@H](C)/C=C(\C)[C@H](OC(N)=O)[C@@H](OC)/C=C\C=C(/C)C(=O)NC(=CC1=O)C2=O at 0.01 µM
nutlin-3: COc1ccc(C2=N[C@@H](c3ccc(Cl)cc3)[C@@H](c3ccc(Cl)cc3)N2C(=O)N2CCNC(=O)C2)c(OC(C)C)c1 at 0.5 µM
palbociclib: CC(=O)c1c(C)c2cnc(Nc3ccc(N4CCNCC4)cn3)nc2n(C2CCCC2)c1=O at 0.2 µM
CHIR-265: Cn1c(Nc2ccc(C(F)(F)F)cc2)nc2cc(Oc3ccnc(-c4ncc(C(F)(F)F)[nH]4)c3)ccc21 at 0.4 µM

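Human melanoma cell lines in 1,536-well plates were treated with two drugs together for 72 h, then fixed, stained and imaged. Each value is the cleaved-PARP-positive fraction of nuclei relative to DMSO-treated wells, in %, so that 100 equals the control and higher values mean more apoptosis. Every drug was used at one fixed concentration, the higher of two screened. No replicate spread is given; individual values may be noisy. Basal and induced levels differ widely between cell lines.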
Only some of the drugs and lines screened are listed, without regard to their results.
An entry leaves out what has no value listed here.
A dash means that no value is listed here.

Combination	UACC-62	MEL-HO	IPC-298	C32	WM3619	RVH-421	MZ2-MEL	COLO 792	MeWo	A375	WM1716	501mel	COLO 800	WM3526	SK-MEL-5
tanespimycin and bortezomib	375	281	3050	967	1060	1430	13900	395	1350	122	12900	-	99.2	3320	2660
dorsomorphin and palbociclib	184	92.2	133	129	159	76.0	29.0	196	69.1	173	80.5	234	67.4	144	98.1
CP-690550 and bortezomib	136	126	1860	1210	2510	669	34500	140	1500	-	9350	-	127	3060	258
vatalanib and PF-04217903	168	91.5	43.1	112	310	167	155	49.2	137	-	209	-	92.6	234	121
bortezomib and nutlin-3	285	140	2120	990	2730	2710	11800	212	1170	42.7	8930	-	127	2750	1430
PF-04217903 and nutlin-3	128	235	43.6	205	129	102	56.8	98.2	106	-	98.5	-	72.4	112	56.0
dorsomorphin and CHIR-265	159	147	130	167	174	50.7	260	575	88.9	471	28.6	287	212	504	384
nutlin-3 and tanespimycin	293	51.2	99.3	417	157	215	67.5	143	167	105	132	-	79.3	270	105
tanespimycin and dorsomorphin	228	83.9	240	467	287	207	337	82.8	283	133	144	323	72.2	185	148
dovitinib and CHIR-265	281	122	334	246	152	134	303	1220	96.1	193	232	-	76.7	448	1160
dovitinib and palbociclib	137	64.3	321	161	133	228	101	208	163	139	119	-	39.5	115	120
dorsomorphin and CP-690550	134	93.5	24.8	118	127	99.0	39.3	144	109	117	66.2	401	122	104	143
palbociclib and CHIR-265	393	239	179	150	167	191	267	867	112	197	56.9	-	143	433	1730
tanespimycin and PF-04217903	168	72.9	68.0	2010	131	43.5	189	289	242	-	176	-	173	391	49.2
PF-04217903 and dorsomorphin	55.5	48.5	92.4	131	113	80.8	96.7	62.4	48.0	69.1	70.0	121	84.2	57.7	57.1
CP-690550 and nutlin-3	140	66.4	59.4	219	93.0	170	98.9	97.5	140	-	135	-	183	113	191
dorsomorphin and dovitinib	157	106	101	146	133	72.5	180	142	589	145	147	139	398	73.3	53.6
PF-04217903 and CP-690550	138	146	31.7	78.6	107	363	177	79.4	53.1	-	58.5	-	23.9	112	74.9
palbociclib and vatalanib	184	165	152	621	206	103	29.8	255	67.9	62.5	98.4	-	100	153	330
nutlin-3 and CHIR-265	430	154	212	360	244	178	228	1750	138	185	61.7	-	153	588	2100
PF-04217903 and CHIR-265	187	98.0	59.9	61.6	163	173	116	851	154	-	43.2	-	84.1	389	1460
CHIR-265 and bortezomib	238	293	5370	758	1370	2520	28500	308	3100	351	8160	-	320	4390	4780
bortezomib and dovitinib	198	187	2220	587	1760	48.8	21300	259	2400	67.2	7940	-	59.5	3200	1630
palbociclib and tanespimycin	225	89.0	102	622	170	145	106	113	54.5	111	51.1	-	104	286	285
bortezomib and dorsomorphin	343	121	6180	504	1910	880	20600	360	2960	209	10100	4820	108	2710	4700
vatalanib and CHIR-265	305	131	452	807	198	131	138	2980	89.8	217	97.0	-	241	394	3590
vatalanib and dorsomorphin	193	262	151	146	251	124	2940	37.0	209	111	77.3	647	210	173	54.8
nutlin-3 and vatalanib	125	91.0	360	193	261	114	237	190	120	108	140	-	116	263	129
tanespimycin and CP-690550	265	68.4	72.0	1340	190	120	277	115	321	-	97.6	-	136	57.4	76.0
dovitinib and PF-04217903	91.1	275	54.7	226	131	171	282	92.3	296	-	197	-	129	276	253
CP-690550 and palbociclib	161	85.0	246	150	190	286	138	182	325	-	50.1	-	126	108	46.6
palbociclib and PF-04217903	128	37.9	91.7	190	119	171	49.0	176	45.9	-	61.1	-	50.3	58.9	71.3
bortezomib and vatalanib	268	358	22000	1640	3660	4670	-	416	2040	135	7690	-	274	1970	2740
dovitinib and nutlin-3	221	210	166	131	143	114	39.5	103	342	219	53.9	-	166	229	466
vatalanib and tanespimycin	327	102	75.1	1030	183	343	506	347	257	101	47.1	-	170	252	58.0
vatalanib and dovitinib	221	67.9	135	236	171	167	399	136	102	98.0	298	-	142	305	623
dovitinib and CP-690550	110	92.9	52.1	65.7	129	138	222	141	611	-	93.0	-	237	479	239
palbociclib and nutlin-3	303	104	138	248	130	119	169	59.8	121	150	79.7	-	109	130	114
tanespimycin and CHIR-265	256	112	293	93.7	222	202	460	5150	189	97.8	267	-	81.4	661	922
CP-690550 and CHIR-265	220	75.4	117	603	184	189	260	680	108	-	244	-	99.5	573	402

The last 3 entries again:

{"combination": "palbociclib and nutlin-3", "UACC-62": 303, "MEL-HO": 104, "IPC-298": 138, "C32": 248, "WM3619": 130, "RVH-421": 119, "MZ2-MEL": 169, "COLO 792": 59.8, "MeWo": 121, "A375": 150, "WM1716": 79.7, "COLO 800": 109, "WM3526": 130, "SK-MEL-5": 114}
{"combination": "tanespimycin and CHIR-265", "UACC-62": 256, "MEL-HO": 112, "IPC-298": 293, "C32": 93.7, "WM3619": 222, "RVH-421": 202, "MZ2-MEL": 460, "COLO 792": 5150, "MeWo": 189, "A375": 97.8, "WM1716": 267, "COLO 800": 81.4, "WM3526": 661, "SK-MEL-5": 922}
{"combination": "CP-690550 and CHIR-265", "UACC-62": 220, "MEL-HO": 75.4, "IPC-298": 117, "C32": 603, "WM3619": 184, "RVH-421": 189, "MZ2-MEL": 260, "COLO 792": 680, "MeWo": 108, "WM1716": 244, "COLO 800": 99.5, "WM3526": 573, "SK-MEL-5": 402}